These are yes or no findings as the source states them, for the method shown. Some binding calls cover weakened binding; strength is not graded here. For some assays here: Sequences can lack the tags named with a protein. Each block holds one binder with its values, some of them ahead of it.
Columns and labels:
[1] = biological target: T1, H-NS (E. coli chromosomal nucleoid-structuring protein), full-length, low-copy two-hybrid fusion (E. coli (BW25113, K12)) (UniProt P0ACF8); assay: two-hybrid
T1 sequence: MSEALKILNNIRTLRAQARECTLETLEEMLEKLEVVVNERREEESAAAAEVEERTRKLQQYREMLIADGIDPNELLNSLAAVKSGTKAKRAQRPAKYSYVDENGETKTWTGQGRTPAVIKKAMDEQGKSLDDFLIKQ

[2] = biological target: T2, H-NS (M1-G85), truncated H-NS lacking its DNA-binding domain (E. coli (BW25113, K12)) (UniProt P0ACF8); assay: two-hybrid; bacterial two-hybrid (split adenylate cyclase, T18 on high-copy pUT18/pUT18C, T25 on low-copy pKT25/pKNT25) in E. coli BTH101; overnight cultures spotted on LB agar with ampicillin, kanamycin, X-gal and IPTG; 30°C, 24 h or 48 h (pUT18C::hha, pUT18C::cnu); blue spot = interaction
T2 sequence: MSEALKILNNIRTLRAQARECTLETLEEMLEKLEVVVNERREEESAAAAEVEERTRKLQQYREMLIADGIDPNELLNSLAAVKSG

[3] = biological target: T3, StpA (E. coli paralog of H-NS) (E. coli (BW25113, K12)) (UniProt P0ACG1); assay: as above
T3 sequence: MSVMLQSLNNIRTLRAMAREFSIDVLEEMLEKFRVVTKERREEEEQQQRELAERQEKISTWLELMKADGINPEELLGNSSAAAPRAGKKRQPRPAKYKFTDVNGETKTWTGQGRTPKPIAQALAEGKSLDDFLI

[4] = biological target: T2, H-NS (M1-G85), truncated H-NS lacking its DNA-binding domain (E. coli (BW25113, K12)); assay: two-hybrid

B3: Hha with the adenylate cyclase fragment fused to its C-terminus (protein, UniProt P0ACE3 1-72)
chain: MSEKPLTKTDYLMRLRRCQTIDTLERVIEKNKYELSDNELAVFYSAADHRLAELTMNKLYDKIPSSVWKFIR
binding [4]: binds

B4: StpA (E. coli paralog of H-NS) (protein, UniProt P0ACG1 1-134)
chain: T3 sequence
binding [1]: binds
binding [2]: binds

Now from value to binder:

binding [1]: binds
binding [2]: binds
binding [3]: binds
B1: Cnu (YdgT), paralog of Hha (protein, UniProt P64467 1-71)
chain: MTVQDYLLKFRKISSLESLEKLYDHLNYTLTDDQELINMYRAADHRRAELVSGGRLFDLGQVPKSVWHYVQ

binding [1]: binds
binding [4]: binds
B2: Hha with the adenylate cyclase fragment fused to its N-terminus (protein, UniProt P0ACE3 1-72)
chain: B3 chain

From article PMC11796372
